[ ]: non-standard residue; d: D form. The star is where a group is joined. pGlu = O=C1CC[C@@H](C(=O)O)N1; Boc = CC(C)(C)OC(=O)*
Experiments:
[1] = solution-phase peptide synthesis; carbodiimide or active ester
[2] = general procedure: Boc solid-phase peptide synthesis; carbodiimide or active ester; conditions: whole synthesis
[3] = general procedure: Boc solid-phase peptide synthesis; Boc-Pro-resin; carbodiimide or active ester; conditions: whole synthesis, scale 1 mmole
[4] = general procedure: Boc solid-phase peptide synthesis; benzhydrylamine resin.HCl; carbodiimide or active ester; conditions: whole synthesis, scale 1 mmole
[5] = general procedure: Boc solid-phase peptide synthesis; benzhydrylamine.HCl resin; carbodiimide or active ester; conditions: whole synthesis
[6] = late stage modification step, TFA salt

| Substance | step yield ([1]; coupling step) [%] | isolated yield ([2]; run 1) [%] | isolated yield ([2]; run 2) [%] | further results |
| --- | --- | --- | --- | --- |
| Boc-GWQP-NHEt | 81 | – | – | – |
| Boc-[dF]LQP-NHEt | 89 | – | – | – |
| D--Phe^6, Gln^8 --GnRH | – | 55 | 32 | – |
| Glp--His(DNP)--Trp--Ser(OBzl)--Tyr(OBzl)--Gly--Trp--Leu--Pro | – | 41 | 26 | crude yield [2]: 59%; crude mass [3]: 710 mg |
| Glp--His(DNP)--Trp--Ser(OBzl)--Tyr--Gly--Trp--Gln--Pro--Gly | – | 42 | 31 | crude yield ([2]; scale 1 mmole): 65%; crude mass [4]: 0.8 g |
| Glp--His(Tos)--Trp--Ser(OBzl)--Tyr(OBzl)--Gly--Phe--Gln--Pro--Gly | – | 49 | 38 | crude yield [2]: 82%; crude mass ([5]; scale 1 mmole): 980 mg |
| Glp--His(Tos)--Trp--Ser(OBzl)--Tyr(OBzl)--Gly--Phe--Leu--Pro--Gly | – | 62 | 51 | crude yield [2]: 87%; crude mass ([5]; scale 0.5 mmole): 510 mg |
| Glp--His--Trp--Ser--Tyr--N2 H3 | – | – | – | step yield ([1]; late stage modification step, calculated for the two steps): 56.9% |
| H--D--Phe--Leu--Gln--Pro--NHEt.TFA | – | – | – | step yield [1, 6]: 68% |
| H--Gly--Trp--Gln--Pro--NHEt.TFA | – | – | – | step yield [1, 6]: 76.6% |
| [pGlu]HWSY-OMe | 100 | – | – | – |
| [pGlu]HWSYGWQP-NHEt | 52 | – | – | – |
| [pGlu]HWSY[dF]LQP-NHEt | 62 | – | – | – |
